54 sequences from publication PMC7819943, “Rice protein-binding microarrays: a tool to detect cis-acting elements near promoter regions in rice” can be followed below.

By UniProt entry, the sequences of proteins in these tests, tags left out.
UniProt Q0JBA9, entry or part of it: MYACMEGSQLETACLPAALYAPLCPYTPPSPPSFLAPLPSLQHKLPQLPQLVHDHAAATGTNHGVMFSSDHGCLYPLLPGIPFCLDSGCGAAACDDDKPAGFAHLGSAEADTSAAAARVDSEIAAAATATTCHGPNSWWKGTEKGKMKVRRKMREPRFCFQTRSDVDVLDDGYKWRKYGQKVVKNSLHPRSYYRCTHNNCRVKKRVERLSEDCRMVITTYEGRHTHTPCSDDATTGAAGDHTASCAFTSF

Some of the results follow.

The target of the experiment is OsWRKY34 (Oryza sativa, UniProt Q0JBA9 1-250). In words: protein-binding microarray (RPBM); PBS, 2% BSA, 51.3 ng/ul salmon testes DNA, 50 uM zinc acetate, 200 nM TF, 25 C, 1 h; high values mean tight binding. The following applies: protein: recombinant; tags: N-terminal polyhistidine and DsRed monomer fusion (pET32a); label: CyDye5-dUTP incorporated in the synthesized complementary strand; 3' TTTTT single-stranded linker to array surface; dsDNA, one strand shown. An outline of the steps:
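For the binding signal, per-feature fluorescence intensity was read in arbitrary units on an Axon 4000B scanner. Before scanning, a 2% BSA-blocked custom Agilent array made double-stranded with Cy5-dUTP was washed after 1 h at 25 °C with 200 nM protein and 50 µM zinc acetate. The proteins were Ni–NTA-purified transcription factors with N-terminal polyhistidine and DsRed fusions, expressed in E. coli BL21-CodonPlus.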
With “TTCTCTTTTTCTTTTTATTTTTTCGTTCTCGTCGCCGCCGCGGAGTCACCTAGTGCAG”, the binding signal is 8330 fluorescence intensity (a.u.).
The same measure for “CGGTGGCGGGGTTCTTCTTTGGCGACTTGGCCTCCTTGTTCGGAGTCACCTAGTGCAG”: 10600 fluorescence intensity (a.u.); for “CTACCATGGTCCCAAGTCTCATTTGCAACTTTTTTACTCCCGGAGTCACCTAGTGCAG”: 8260 fluorescence intensity (a.u.); for “TCCTCTCTTTTGCATGTCATATTAGTAGTATGAAGTTGATCGGAGTCACCTAGTGCAG”: 8200 fluorescence intensity (a.u.).
Consider “ACGTACAATTATAATTACTGTGTATATATGCATGCGCCAACGGAGTCACCTAGTGCAG”, for which the binding signal was 8380 fluorescence intensity (a.u.).
The value for “TCTAGACATTCTCCAATTGTCCTGTTCATCTTGTCTAGACCGGAGTCACCTAGTGCAG” was 8270 fluorescence intensity (a.u.).
For the sequence “AAGGGATTTTGAGTTTTTATTTGCATTGTTTGACCACTCACGGAGTCACCTAGTGCAG”, the binding signal was 10500 fluorescence intensity (a.u.).
With “CCAAGTAAAATTTTGTGCCTCTTATAATTTTTTGATGTTACGGAGTCACCTAGTGCAG”, the binding signal is 8320 fluorescence intensity (a.u.).
As for “TTTTGCAGTTATTTCATGCATTTACTTTTAAAATGCAATTCGGAGTCACCTAGTGCAG”, the binding signal was 8800 fluorescence intensity (a.u.).
For the sequence “ATCTCAGTTCTCATACAAATATCTTCGCTTGGTCACGATCCGGAGTCACCTAGTGCAG”, the binding signal is 8960 fluorescence intensity (a.u.).
Turning to “CCACAGCACCACTACTACGACCGACACGAGCCACAGAGTCCGGAGTCACCTAGTGCAG”, the binding signal was 8470 fluorescence intensity (a.u.).
Consider “TCAATACCTGGCTCACTTGCAGTGTACTCTCCAACAACTTCGGAGTCACCTAGTGCAG”, for which the binding signal is 8790 fluorescence intensity (a.u.).
Consider “GGTTCATGCTTCTCCAATTTTTTTACGTATACAACTACTGCGGAGTCACCTAGTGCAG”, for which the binding signal was 8700 fluorescence intensity (a.u.).
With “AATAGATTGAAGTATGATGAGTTTTTTCTTATTTACCGTTCGGAGTCACCTAGTGCAG”, the binding signal is 8700 fluorescence intensity (a.u.).
For the sequence “AAGTTTATGTGTGTAGGAAAGTTTTGATGTGATGGAAAATCGGAGTCACCTAGTGCAG”, the binding signal is 8350 fluorescence intensity (a.u.).
Regarding “CGATCTCCAGGTGCACCAAAACACTCGCTCTCGCCTTGACCGGAGTCACCTAGTGCAG”, the binding signal was 9420 fluorescence intensity (a.u.).
For the sequence “CATATGCTATTTTCTGTTTCAAACTTTTTTTCACAAAGCGCGGAGTCACCTAGTGCAG”, the binding signal is 10200 fluorescence intensity (a.u.).
As to “GTGCTTGCCCTTTGTTGCGTTGGTGTTGTTTATGTTCTCTCGGAGTCACCTAGTGCAG”, the binding signal was 12300 fluorescence intensity (a.u.).
The same measure for “GTGATAGAAAAGTTGTGTGTGTATGAAATGTTTGATGCGACGGAGTCACCTAGTGCAG”: 8750 fluorescence intensity (a.u.).
The value for “GGCCCTTATAAATAACTGACCATGTTGCCTGAATTTTACCCGGAGTCACCTAGTGCAG” was 11400 fluorescence intensity (a.u.).
The same measure for “CACCCACAAAGCCACCACTGACCACTCGCTTTGCCAAGCACGGAGTCACCTAGTGCAG”: 10200 fluorescence intensity (a.u.); for “CCCTTGTAATTATTTGATATTAGATCATTCCCTAATATTCCGGAGTCACCTAGTGCAG”: 9690 fluorescence intensity (a.u.).
For the sequence “AACCCTTTTCATCCTGTCACGCCACCGAGGCACCCGCCTCCGGAGTCACCTAGTGCAG”, the binding signal was 8960 fluorescence intensity (a.u.).
Take “TTATGTTTGAGTACTATATGTTGCGTTTTAGTTTTAGTTCCGGAGTCACCTAGTGCAG”: the binding signal was 10100 fluorescence intensity (a.u.).
For the sequence “ACAGAAATTTTAGAGCTATGTTTTGAATGCACAGTTCCTACGGAGTCACCTAGTGCAG”, the binding signal was 8060 fluorescence intensity (a.u.).
On to “TCTCTCTCTACTCCCACTGTCTTGCTGCTCCCGCCGGTCCCGGAGTCACCTAGTGCAG”, for which the binding signal was 10100 fluorescence intensity (a.u.).
Consider “TCTTGTACTACTACGTACTACTCCATCGACGCTCGCCAATCGGAGTCACCTAGTGCAG”, for which the binding signal was 8240 fluorescence intensity (a.u.).
In the case of “AAGTCTGCTATCATTGCGTAATCACGGTTTGTGCCTTTGTCGGAGTCACCTAGTGCAG”, the binding signal was 10400 fluorescence intensity (a.u.).
As for “GTACCGGCGACAGCAACAGCAATTGGTTTCTGCTTCTCGCCGGAGTCACCTAGTGCAG”, the binding signal is 9270 fluorescence intensity (a.u.).
As to “AGTACTACCATCCATCCACAATATCGTTACTGAACAACGTCGGAGTCACCTAGTGCAG”, the binding signal was 9950 fluorescence intensity (a.u.).
The same measure for “GAGGGGACGGCCATGGGTGGGTGGGCCCGGCTCCCGGCTCCGGAGTCACCTAGTGCAG”: 8880 fluorescence intensity (a.u.); for “GGCTATTTCTGTACTAGTGATTGGTCACTGCTCACACTGACGGAGTCACCTAGTGCAG”: 8360 fluorescence intensity (a.u.).
With “ACATGCCAAATTGGCGATTGCCATTGAGTTCCATCCATCCCGGAGTCACCTAGTGCAG”, the binding signal was 8590 fluorescence intensity (a.u.).
As for “CCTTGCCACCCTTGCACGCACATGGCGTTGTGTGCCACGTCGGAGTCACCTAGTGCAG”, the binding signal was 9920 fluorescence intensity (a.u.).
For “CCATCGCCGCCGCCCTCTTCTTCTTCTTCTTGCGAAGCAACGGAGTCACCTAGTGCAG”, the binding signal is 8820 fluorescence intensity (a.u.).
Consider “CGGTGTACTACTTTTATATATGCAAACCTTTATTGCCTGACGGAGTCACCTAGTGCAG”, for which the binding signal is 10300 fluorescence intensity (a.u.).
The same measure for “ACTGTGATACATTCTACATAATTTATTCATTTATTTGCATCGGAGTCACCTAGTGCAG”: 8900 fluorescence intensity (a.u.); for “CTGGTTTGGCTATTATTTCCTATGTATATGTATTTTGTACCGGAGTCACCTAGTGCAG”: 12800 fluorescence intensity (a.u.); for “CTGCCACCGGTCCCCGGGCCTCTTCCTCTGCCGCCTCGTTCGGAGTCACCTAGTGCAG”: 9050 fluorescence intensity (a.u.).
In the case of “TTAATTAGCCGCGGCCTTCCTGCCTTTGTCACGTACTACTCGGAGTCACCTAGTGCAG”, the binding signal is 8830 fluorescence intensity (a.u.).
As to “TCTCTCTGAACCTCCTTTGTTGCGTTGACTGTGCTCTCTGCGGAGTCACCTAGTGCAG”, the binding signal is 15200 fluorescence intensity (a.u.).
The value for “TAACACTAGTGCTCTTTCGTTTGGCTTTATGCTCTTCTTTCGGAGTCACCTAGTGCAG” was 12000 fluorescence intensity (a.u.).
“ACCCAACCACCTAGCTATCCCCACACATGATCACACTAGCCGGAGTCACCTAGTGCAG”: the binding signal is 8090 fluorescence intensity (a.u.).
On to “CTGTCAAAATGTTTGTGGTATATTGTGCATCCTTTCTAATCGGAGTCACCTAGTGCAG”, for which the binding signal was 9400 fluorescence intensity (a.u.).
For the sequence “TGGATCTCTGCCATGCTCTCTCACTGACATCGTGGGCCCACGGAGTCACCTAGTGCAG”, the binding signal is 10600 fluorescence intensity (a.u.).
In the case of “CCCTTTCCTTTTCTTTTTTTTTCTCATTTTATCCACAATTCGGAGTCACCTAGTGCAG”, the binding signal was 9870 fluorescence intensity (a.u.).
For the sequence “AAGCTTCGTCATTTCGTTCCTCAGTAATATCTCATTTTCCCGGAGTCACCTAGTGCAG”, the binding signal was 9070 fluorescence intensity (a.u.).
Consider “TGGCGCCGCGGCCTGGCCGTTGACCGATCGCGATGGCGCGCGGAGTCACCTAGTGCAG”, for which the binding signal is 8980 fluorescence intensity (a.u.).
For “GTATCAGTAGCCCTGCAGATTCTTGCTACCAGTCACACCTCGGAGTCACCTAGTGCAG”, the binding signal was 8830 fluorescence intensity (a.u.).
For “CCGTCGCAACCTCCATCTCCTCCGACGCTTCTCCGCTCCGCGGAGTCACCTAGTGCAG”, the binding signal was 9840 fluorescence intensity (a.u.).
The value for “TAATGTGCCGCCTCCGACTCTCTTCTCTTCTTTGCCCTTGCGGAGTCACCTAGTGCAG” was 10400 fluorescence intensity (a.u.).
On to “AACTCGAGCCTCTCTCTGTGTGTCTTTCCCACCATCTGTCCGGAGTCACCTAGTGCAG”, for which the binding signal is 8960 fluorescence intensity (a.u.).
As for “ATGGTAGTCTGGTTCGGTCCGTGAGTTTTCTGATTTTGATCGGAGTCACCTAGTGCAG”, the binding signal was 9850 fluorescence intensity (a.u.).
The value for “CGTCCCCGCCCGCCGCGGCCTCTCTCTCTCGATCGAATCTCGGAGTCACCTAGTGCAG” was 8400 fluorescence intensity (a.u.).
